{"source": "the supplement of paper PMC8728848", "binders": {"B1": {"name": "RsaA-N-term (Caulobacter crescentus), P35828 (protein)", "chain": "MAYTTAQLVTAYTNANLGKAPDAATTLTLDAYATQTQTGGLSDAAALTNTLKLVNSTTAVAIQTYQFFTGVAPSAAGLDFLVDSTTNTNDLNDAYYSKFAQENRFINFSINLATGAGAGATAFAAAYTGVSYAQTVATAYDKIIGNAVATAAGVDVAAAVAFLSRQANIDYLTAFVRANTPFTAAADIDLAVKAALIGTILNAATVSGIGGYATATAAMINDLSDGALSTDNAAGVNLFTAYPSSGVSGSTLSLTTGTDTLTGTANNDTFVAGEVAGDGSGWSHPQFEKGG"}}, "assay_in_all_cases": "glycan array binding signal (z-score within array); higher = stronger binding", "details_in_all_cases": "glycan notation: IUPAC condensed, linker removed", "key": {"[1]": {"target": "Fuc(a1-2)[Gal(a1-3)]Gal(b1-4)GlcNAc(b1-2)Man(a1-3)[Fuc(a1-2)[Gal(a1-3)]Gal(b1-4)GlcNAc(b1-2)Man(a1-6)]Man(b1-4)GlcNAc(b1-4)GlcNAc", "in_short": "(§1)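 From the Consortium for Functional Glycomics database, 3228 arrays were curated, keeping only those whose protein sequence was available. Binding is given as a within-array Z-score averaged across arrays sharing a protein sequence and across linkers. Negative Z-scores can be read as non-binding.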"}, "[2]": {"target": "Fuc(a1-2)[Gal(a1-3)]Gal(b1-4)GlcNAc(b1-2)Man(a1-3)[Fuc(a1-2)[Gal(a1-3)]Gal(b1-4)GlcNAc(b1-2)Man(a1-6)]Man(b1-4)GlcNAc(b1-4)[Fuc(a1-6)]GlcNAc", "in_short": "as §1"}, "[3]": {"target": "Fuc(a1-2)[Gal(a1-3)]Gal(b1-4)GlcNAc(b1-3)GalNAc", "in_short": "as §1"}, "[4]": {"target": "Fuc(a1-2)[Gal(a1-3)]Gal(b1-4)GlcNAc(b1-3)[Fuc(a1-2)[Gal(a1-3)]Gal(b1-4)GlcNAc(b1-6)]GalNAc", "in_short": "as §1"}, "[5]": {"target": "Fuc(a1-2)[Gal(a1-3)]Gal(b1-4)GlcNAc(b1-6)GalNAc", "in_short": "as §1"}, "[6]": {"target": "Fuc(a1-2)[Gal(a1-3)]Gal(b1-4)[Fuc(a1-3)]Glc", "in_short": "as §1"}, "[7]": {"target": "Fuc(a1-2)[Gal(a1-3)]Gal(b1-4)[Fuc(a1-3)]GlcNAc", "in_short": "as §1"}, "[8]": {"target": "Fuc(a1-2)[Gal(a1-3)]Gal(b1-4)[Fuc(a1-3)]GlcNAc(b1-3)GalNAc", "in_short": "as §1"}, "[9]": {"target": "Fuc(a1-2)[Gal(a1-4)]Gal(b1-4)GlcNAc", "in_short": "as §1"}, "[10]": {"target": "Fuc(a1-2)[GalNAc(a1-3)]Gal", "in_short": "as §1"}, "[11]": {"target": "Fuc(a1-2)[GalNAc(a1-3)]Gal(b1-3)GalNAc(a1-3)[Fuc(a1-2)]Gal(b1-4)GlcNAc", "in_short": "as §1"}, "[12]": {"target": "Fuc(a1-2)[GalNAc(a1-3)]Gal(b1-3)GalNAc(b1-3)Gal(a1-4)Gal(b1-4)Glc", "in_short": "as §1"}, "[13]": {"target": "Fuc(a1-2)[GalNAc(a1-3)]Gal(b1-3)GlcNAc", "in_short": "as §1"}, "[14]": {"target": "Fuc(a1-2)[GalNAc(a1-3)]Gal(b1-3)GlcNAc(b1-2)Man(a1-3)[Fuc(a1-2)[GalNAc(a1-3)]Gal(b1-3)GlcNAc(b1-2)Man(a1-6)]Man(b1-4)GlcNAc(b1-4)GlcNAc", "in_short": "as §1"}, "[15]": {"target": "Fuc(a1-2)[GalNAc(a1-3)]Gal(b1-3)GlcNAc(b1-2)Man(a1-3)[Fuc(a1-2)[GalNAc(a1-3)]Gal(b1-3)GlcNAc(b1-2)Man(a1-6)]Man(b1-4)GlcNAc(b1-4)[Fuc(a1-6)]GlcNAc", "in_short": "as §1"}, "[16]": {"target": "Fuc(a1-2)[GalNAc(a1-3)]Gal(b1-3)GlcNAc(b1-3)GalNAc", "in_short": "as §1"}, "[17]": {"target": "Fuc(a1-2)[GalNAc(a1-3)]Gal(b1-3)GlcNAc(b1-6)GalNAc", "in_short": "as §1"}, "[18]": {"target": "Fuc(a1-2)[GalNAc(a1-3)]Gal(b1-4)Glc", "in_short": "as §1"}, "[19]": {"target": "Fuc(a1-2)[GalNAc(a1-3)]Gal(b1-4)GlcNAc", "in_short": "as §1"}, "[20]": {"target": "Fuc(a1-2)[GalNAc(a1-3)]Gal(b1-4)GlcNAc(b1-2)Man", "in_short": "as §1"}, "[21]": {"target": "Fuc(a1-2)[GalNAc(a1-3)]Gal(b1-4)GlcNAc(b1-2)Man(a1-3)[Fuc(a1-2)[GalNAc(a1-3)]Gal(b1-4)GlcNAc(b1-2)Man(a1-6)]Man(b1-4)GlcNAc(b1-4)GlcNAc", "in_short": "as §1"}, "[22]": {"target": "Fuc(a1-2)[GalNAc(a1-3)]Gal(b1-4)GlcNAc(b1-2)Man(a1-3)[Fuc(a1-2)[GalNAc(a1-3)]Gal(b1-4)GlcNAc(b1-2)Man(a1-6)]Man(b1-4)GlcNAc(b1-4)[Fuc(a1-6)]GlcNAc", "in_short": "as §1"}, "[23]": {"target": "Fuc(a1-2)[GalNAc(a1-3)]Gal(b1-4)GlcNAc(b1-3)Gal(b1-4)GlcNAc", "in_short": "as §1"}, "[24]": {"target": "Fuc(a1-2)[GalNAc(a1-3)]Gal(b1-4)GlcNAc(b1-3)Gal(b1-4)GlcNAc(b1-3)Gal(b1-4)GlcNAc", "in_short": "as §1"}, "[25]": {"target": "Fuc(a1-2)[GalNAc(a1-3)]Gal(b1-4)GlcNAc(b1-3)GalNAc", "in_short": "as §1"}, "[26]": {"target": "Fuc(a1-2)[GalNAc(a1-3)]Gal(b1-4)GlcNAc(b1-3)[Fuc(a1-2)[GalNAc(a1-3)]Gal(b1-4)GlcNAc(b1-6)]GalNAc", "in_short": "as §1"}, "[27]": {"target": "Fuc(a1-2)[GalNAc(a1-3)]Gal(b1-4)GlcNAc(b1-6)GalNAc", "in_short": "as §1"}, "[28]": {"target": "Fuc(a1-2)[GalNAc(a1-3)]Gal(b1-4)[Fuc(a1-3)]GlcNAc", "in_short": "as §1"}, "[29]": {"target": "Fuc(a1-2)[GalNAc(a1-3)]Gal(b1-4)[Fuc(a1-3)]GlcNAc(b1-3)GalNAc", "in_short": "as §1"}, "[30]": {"target": "Fuc(a1-2)[GalNAc(a1-4)]Gal(b1-4)GlcNAc", "in_short": "as §1"}, "[31]": {"target": "Fuc(a1-2)[GalNAc(b1-3)]Gal", "in_short": "as §1"}, "[32]": {"target": "Fuc(a1-3)GlcNAc", "in_short": "as §1"}, "[33]": {"target": "Fuc(a1-3)[Gal(b1-4)]Glc6S", "in_short": "as §1"}, "[34]": {"target": "Fuc(a1-3)[Gal(b1-4)]GlcNAc", "in_short": "as §1"}, "[35]": {"target": "Fuc(a1-3)[Gal(b1-4)]GlcNAc(b1-2)Man", "in_short": "as §1"}, "[36]": {"target": "Fuc(a1-3)[Gal(b1-4)]GlcNAc(b1-2)Man(a1-3)[Fuc(a1-3)[Gal(b1-4)]GlcNAc(b1-2)Man(a1-6)]Man(b1-4)GlcNAc(b1-4)GlcNAc", "in_short": "as §1"}, "[37]": {"target": "Fuc(a1-3)[Gal(b1-4)]GlcNAc(b1-2)Man(a1-3)[Fuc(a1-3)[Gal(b1-4)]GlcNAc(b1-2)Man(a1-6)]Man(b1-4)GlcNAc(b1-4)[Fuc(a1-6)]GlcNAc", "in_short": "as §1"}}, "note": "This is one part of the list."}
{"binder": "B1", "values": [{"measurement": "glycan array binding signal (z-score)", "setting": "[1]", "value": -0.039}, {"measurement": "glycan array binding signal (z-score)", "setting": "[2]", "value": -0.939}, {"measurement": "glycan array binding signal (z-score)", "setting": "[3]", "value": -0.285}, {"measurement": "glycan array binding signal (z-score)", "setting": "[4]", "value": -0.404}, {"measurement": "glycan array binding signal (z-score)", "setting": "[5]", "value": -0.728}, {"measurement": "glycan array binding signal (z-score)", "setting": "[6]", "value": -0.986}, {"measurement": "glycan array binding signal (z-score)", "setting": "[7]", "value": 1.78}, {"measurement": "glycan array binding signal (z-score)", "setting": "[8]", "value": 0.114}, {"measurement": "glycan array binding signal (z-score)", "setting": "[9]", "value": -0.479}, {"measurement": "glycan array binding signal (z-score)", "setting": "[10]", "value": -0.285}, {"measurement": "glycan array binding signal (z-score)", "setting": "[11]", "value": 0.134}, {"measurement": "glycan array binding signal (z-score)", "setting": "[12]", "value": -0.11}, {"measurement": "glycan array binding signal (z-score)", "setting": "[13]", "value": -0.279}, {"measurement": "glycan array binding signal (z-score)", "setting": "[14]", "value": -0.204}, {"measurement": "glycan array binding signal (z-score)", "setting": "[15]", "value": 0.922}, {"measurement": "glycan array binding signal (z-score)", "setting": "[16]", "value": -0.512}, {"measurement": "glycan array binding signal (z-score)", "setting": "[17]", "value": -0.447}, {"measurement": "glycan array binding signal (z-score)", "setting": "[18]", "value": 0.384}, {"measurement": "glycan array binding signal (z-score)", "setting": "[19]", "value": 0.063}, {"measurement": "glycan array binding signal (z-score)", "setting": "[20]", "value": 0.442}, {"measurement": "glycan array binding signal (z-score)", "setting": "[21]", "value": 1.69}, {"measurement": "glycan array binding signal (z-score)", "setting": "[22]", "value": 0.029}, {"measurement": "glycan array binding signal (z-score)", "setting": "[23]", "value": 0.938}, {"measurement": "glycan array binding signal (z-score)", "setting": "[24]", "value": 0.016}, {"measurement": "glycan array binding signal (z-score)", "setting": "[25]", "value": -0.446}, {"measurement": "glycan array binding signal (z-score)", "setting": "[26]", "value": -1.55}, {"measurement": "glycan array binding signal (z-score)", "setting": "[27]", "value": 0.045}, {"measurement": "glycan array binding signal (z-score)", "setting": "[28]", "value": 0.069}, {"measurement": "glycan array binding signal (z-score)", "setting": "[29]", "value": -1.19}, {"measurement": "glycan array binding signal (z-score)", "setting": "[30]", "value": -1.27}, {"measurement": "glycan array binding signal (z-score)", "setting": "[31]", "value": -1.19}, {"measurement": "glycan array binding signal (z-score)", "setting": "[32]", "value": -0.979}, {"measurement": "glycan array binding signal (z-score)", "setting": "[33]", "value": 0.305}, {"measurement": "glycan array binding signal (z-score)", "setting": "[34]", "value": -0.567}, {"measurement": "glycan array binding signal (z-score)", "setting": "[35]", "value": 0.259}, {"measurement": "glycan array binding signal (z-score)", "setting": "[36]", "value": -0.505}, {"measurement": "glycan array binding signal (z-score)", "setting": "[37]", "value": 0.314}]}
